According to publication PMC6303327:
Construct, isoform or probe ends are uncertain for at least one entry. For some of these results: At least one verdict rests on a figure or table, not on a statement of the authors.

Chains of the proteins cited; added tags and fusions are not shown. A line that says so, or that is headed by a name, gives the form on record, which may keep a tag or linker.
ScRPA S178D (phosphomimetic) (Saccharomyces cerevisiae), one chain, as listed by the source S178D, chain 1 of 3: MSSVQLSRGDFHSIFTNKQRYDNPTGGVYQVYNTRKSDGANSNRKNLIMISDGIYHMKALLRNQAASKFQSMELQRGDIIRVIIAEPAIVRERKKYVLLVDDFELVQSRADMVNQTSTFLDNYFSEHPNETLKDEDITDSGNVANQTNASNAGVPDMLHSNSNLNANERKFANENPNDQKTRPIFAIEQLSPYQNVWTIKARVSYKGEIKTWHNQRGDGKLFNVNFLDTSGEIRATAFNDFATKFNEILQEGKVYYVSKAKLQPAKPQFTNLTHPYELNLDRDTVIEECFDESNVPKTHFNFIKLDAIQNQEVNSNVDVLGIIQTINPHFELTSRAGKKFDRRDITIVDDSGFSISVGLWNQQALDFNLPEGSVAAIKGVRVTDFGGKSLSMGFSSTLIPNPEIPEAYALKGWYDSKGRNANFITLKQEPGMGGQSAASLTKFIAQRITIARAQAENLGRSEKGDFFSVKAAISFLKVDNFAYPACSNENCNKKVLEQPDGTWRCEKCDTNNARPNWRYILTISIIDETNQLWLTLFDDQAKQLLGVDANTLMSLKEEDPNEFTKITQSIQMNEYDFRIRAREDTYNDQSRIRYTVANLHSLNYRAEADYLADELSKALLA
ScRPA (Rfa1-Rfa2-Rfa3 heterotrimer, wild type) (Saccharomyces cerevisiae), one chain, as listed by the source, chain 1 of 3: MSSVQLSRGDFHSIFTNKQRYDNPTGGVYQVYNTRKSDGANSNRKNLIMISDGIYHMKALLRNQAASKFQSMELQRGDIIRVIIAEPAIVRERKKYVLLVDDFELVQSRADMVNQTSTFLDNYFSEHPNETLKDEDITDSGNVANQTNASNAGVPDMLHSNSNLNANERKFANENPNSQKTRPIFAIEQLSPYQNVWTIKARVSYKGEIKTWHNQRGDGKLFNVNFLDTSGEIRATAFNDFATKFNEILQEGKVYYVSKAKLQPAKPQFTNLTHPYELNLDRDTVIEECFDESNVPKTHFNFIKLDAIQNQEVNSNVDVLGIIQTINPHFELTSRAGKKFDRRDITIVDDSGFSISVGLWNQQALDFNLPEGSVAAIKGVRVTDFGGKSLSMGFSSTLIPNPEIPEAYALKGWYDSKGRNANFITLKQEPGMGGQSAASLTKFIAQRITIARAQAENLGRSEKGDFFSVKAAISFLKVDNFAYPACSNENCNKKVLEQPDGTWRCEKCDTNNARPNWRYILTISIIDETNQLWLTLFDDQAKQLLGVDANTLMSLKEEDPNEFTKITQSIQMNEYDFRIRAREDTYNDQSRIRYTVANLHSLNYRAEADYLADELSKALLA

What was measured:
[1] = test system: ScRPA S178D (phosphomimetic) (Saccharomyces cerevisiae); assay: FRET titration; details: 10 nM DNA, quadratic fit, FRET: reaction buffer not given, recombinant protein, protein details: TEV-cleavable His6 on Rfa1, label: 5' Cy5, 3' Cy3, single-stranded DNA
[2] = test system: ScRPA (Rfa1-Rfa2-Rfa3 heterotrimer, wild type) (Saccharomyces cerevisiae); assay: FRET titration; details: substrate assigned from source data header; FRET: reaction buffer not given, 10 nM DNA; recombinant protein; protein details: TEV-cleavable His6 on Rfa1; label: Cy5/Cy3 at 1 and 11 (from name); single-stranded DNA
[3] = test system: RPA S178D-DBD-A-Cy3 + RPA S178D-DBD-D-Cy5 S178D,T211 S178D,W101; assay: stopped-flow FRET; details: 40 nM each, FRET: reaction buffer not given, 10 nM DNA, recombinant protein, single-stranded DNA
[4] = test system: ScRPA S178D (phosphomimetic) (Saccharomyces cerevisiae); assay: MST; details: apparent EC50, Hill slope 1.7 ± 0.1; room temperature, 20 min; recombinant protein; protein details: TEV-cleavable His6 on Rfa1; label: 5' Cy5; single-stranded DNA
[5] = test system: ScRPA S178D (phosphomimetic) (Saccharomyces cerevisiae); assay: cryo-EM; details: dataset 2, merged into the Tri-C map; recombinant protein; protein details: TEV-cleavable His6 on Rfa1; single-stranded DNA

“TTTTTTTTTTTTTTTTTTTTTTTTTTTTTT [dT30 (FRET)]”: binds [1].
“TTTTTTTTTTTTTTTTTTTTTTTTTTTTTT [dT30(1-11)]” was tested, and the Kd [2] was 17.4 nM.
“TTTTTTTTTTTTTTTTTTTTTTTTTTTTTTTTTTTTTTTTTTTTT [dT45]”: binds ([3]; two RPA per DNA).
“TTTTTTTTTTTTTTTTTTTTTTTTTTTTTTTTTTTTTTTTTTTTTTTTTTTTTTTTTTTT [dT60]”: binds [3].
“TTTTTTTTTTTTTTTTTTTTTTTTTTTTTTTTTTTTTTTTTTTTTTTTTTTTTTTTTTTTTTTTTTTTTT [dT70]”: binds [3].
“TTTTTTTTTTTTTTTTTTTTTTTTTTTTTTTTTTTTTTTTTTTTTTTTTTTTTTTTTTTTTTTTTTTTTTTTTTTTTTT [dT79]”: binds [3].
“TTTTTTTTTTTTTTTTTTTTTTTTTTTTTTTTTTTTTTTTTTTTTTTTTTTTTTTTTTTTTTTTTTTTTTTTTTTTTTTTTTTTTTTTTTTTTTTTT [dT97]”: binds ([3]; kobs,1 rises with length).
With “TTTTTTTTTTTTTTTTTTTTTTTTTTTTTTTTTTTTTTTTTTTTTTTTTTTTTTTTTTTTTTTTTTTTTTTTTTTTTTTTTTTTTTTTTTTTTTTTTTTT [dT100 (Cy5)]” the half-maximal binding [4] was 80 nM.
“TTTTTTTTTTTTTTTTTTTTTTTTTTTTTTTTTTTTTTTTTTTTTTTTTTTTTTTTTTTTTTTTTTTTTTTTTTTTTTTTTTTTTTTTTTTTTTTTTTTT [dT100 (cryo-EM, SEC-MALS)]”: binds [5].
“TTTTTTTTTTTTTTTTTTTTTTTTTTTTTTTTTTTTTTTTTTTTTTTTTTTTTTTTTTTTTTTTTTTTTTTTTTTTTTTTTTTTTTTTTTTTTTTTTTTTTTTTTTTTTTTTTTTTTTTTTTTTTTTTTTTTTTTTTTTT [dT140]”: binds ([3]; one-step fit).
